Measured data: PubChem BioAssay AID1159584 (Peter MacCallum Cancer Centre, 2016)
The whole screen tested about 18,000 reagents; shown is a random part of them. The record does not give: the amount of reagent, the time to read-out.

Screen: 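Knock-downs that harm CDH1-null cells more than parental MCF10A cells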 (primary screen)
Cells: human MCF10A breast epithelial cells, parental and CDH1-null
Knock-down reagent: siRNA against human genes
Detection: 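ATP luminescence (CellTiter-Glo) viability per line relative to mean mock wells over all plates, and the ratio of CDH1-null to parental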
Scale: CDH1-null / parental viability ratio: higher = CDH1-null cells survive relatively better than parental; CDH1-null viability vs mock: higher = more viable CDH1-null cells; parental viability vs mock: higher = more viable parental cells

Gene	CDH1-null / parental viability ratio	CDH1-null viability vs mock (fraction of mock)	parental viability vs mock (fraction of mock)
ANKRD34A (GeneID 284615)	0.97	0.92	0.95
MYORG (GeneID 57462)	1.15	0.92	0.8
EFCAB7 (GeneID 84455)	0.76	0.8	1.05
LEF1 (GeneID 51176)	1.15	0.92	0.8
TBR1 (GeneID 10716)	0.99	0.73	0.74
EIF3J (GeneID 8669)	1.19	0.74	0.62
GSTA1 (GeneID 2938)	0.74	0.62	0.84
UNC5C (GeneID 8633)	1.04	0.76	0.73
ARHGAP42 (GeneID 143872)	0.87	0.68	0.78
CHRNA9 (GeneID 55584)	1.17	1.12	0.96
EXOC4 (GeneID 60412)	1.14	0.8	0.7
ORC6 (GeneID 23594)	0.92	1.08	1.18
OR2AG1 (GeneID 144125)	0.96	0.46	0.48
TCFL5 (GeneID 10732)	1.2	0.72	0.6
TCN1 (GeneID 6947)	1.32	0.7	0.53
PCDHGC4 (GeneID 56098)	0.93	0.86	0.92
SUPT20H (GeneID 55578)	1.19	0.57	0.48
C4orf33 (GeneID 132321)	1.04	0.83	0.8
KIF7 (GeneID 374654)	1.02	0.64	0.63
TTC21B (GeneID 79809)	0.84	0.74	0.88
WHAMM (GeneID 123720)	0.71	0.57	0.8
L3MBTL2 (GeneID 83746)	0.99	1.08	1.09
PSMD8 (GeneID 5714)	1.19	0.32	0.27
OCIAD1 (GeneID 54940)	0.87	0.82	0.94
HSBP1 (GeneID 3281)	0.95	0.8	0.84
IFIH1 (GeneID 64135)	0.78	0.64	0.82
SRD5A1 (GeneID 6715)	1.3	0.9	0.69
PAQR3 (GeneID 152559)	0.83	0.85	1.02
AQP11 (GeneID 282679)	0.92	0.82	0.89
ADGRF4 (GeneID 221393)	1.33	0.88	0.66
CLN3 (GeneID 1201)	1.1	0.76	0.69
DCAF8 (GeneID 50717)	1.03	1.02	0.99
DDR1 (GeneID 780)	0.97	0.7	0.72
CGB2 (GeneID 114336)	0.98	0.78	0.8

Part of the list above, reduced to “CDH1-null / parental viability ratio”.
MYORG (GeneID 57462)	1.15
EFCAB7 (GeneID 84455)	0.76
LEF1 (GeneID 51176)	1.15
TBR1 (GeneID 10716)	0.99
EIF3J (GeneID 8669)	1.19

The results go on:
Gene	CDH1-null / parental viability ratio	CDH1-null viability vs mock (fraction of mock)	parental viability vs mock (fraction of mock)
FUT5 (GeneID 2527)	1.14	0.98	0.86
LAMTOR3 (GeneID 8649)	0.89	0.8	0.9
RPA2 (GeneID 6118)	1.26	0.48	0.38
RBM8A (GeneID 9939)	1.17	0.34	0.29
MCTP2 (GeneID 55784)	0.83	0.64	0.77
H2AC4 (GeneID 8335)	0.8	0.48	0.6
STOML3 (GeneID 161003)	0.93	0.81	0.87
SERPINB10 (GeneID 5273)	1.26	0.86	0.68
TMUB2 (GeneID 79089)	1.34	0.87	0.65
ZNF830 (GeneID 91603)	0.86	0.81	0.94
IRF2BP2 (GeneID 359948)	1.22	0.55	0.45
OR51Q1 (GeneID 390061)	1.15	0.62	0.54
RIMS4 (GeneID 140730)	1.08	0.82	0.76
ZDHHC4 (GeneID 55146)	0.75	0.39	0.52
OR6C2 (GeneID 341416)	1	0.54	0.54
NPY (GeneID 4852)	1.44	0.98	0.68
CENPU (GeneID 79682)	1.1	0.88	0.8
CNGA3 (GeneID 1261)	1.18	1.03	0.87
MUC15 (GeneID 143662)	0.7	0.49	0.7
H3C11 (GeneID 8354)	1.33	1.04	0.78
FLG (GeneID 2312)	1.03	0.34	0.33
ARSK (GeneID 153642)	1.19	1	0.84
POMGNT2 (GeneID 84892)	0.98	0.92	0.94
NGEF (GeneID 25791)	0.8	0.51	0.64
DCAF8L1 (GeneID 139425)	1.08	1.04	0.96
RAMP1 (GeneID 10267)	0.95	0.97	1.02
ITGAM (GeneID 3684)	1.6	0.8	0.5
SGPL1 (GeneID 8879)	0.99	1.02	1.03
TIFA (GeneID 92610)	0.84	0.69	0.82
ADAMTS3 (GeneID 9508)	1.2	0.84	0.7
COL11A1 (GeneID 1301)	0.86	0.56	0.65
CCL1 (GeneID 6346)	1.1	0.33	0.3
TIPIN (GeneID 54962)	1	0.44	0.44
ERICH3 (GeneID 127254)	1.19	0.81	0.68
